# Results: PubChem BioAssay AID504467 (National Center for Advancing Translational Sciences (NCATS), 2011)
# About 7,700 (2.3%) of roughly 330,000 compounds were called active. This list was built around the results that the source calls inconclusive (neither active nor inactive); the mix of calls is not that of the screen. Calls follow the shape of the dose curve; as a rule, active = well fitted inhibition curve with a large enough effect; inconclusive = small, poorly fitted or top-dose-only effect, or effect the other way; inactive = flat fitted curve, though single readings scatter. Potencies beside an inconclusive call are fits to weak or partial responses and may not hold up.
# Assay: qHTS screen for small molecules that inhibit ELG1-dependent DNA repair in human embryonic kidney (HEK293T) cells expressing luciferase-tagged ELG1; also: nearly all actives have a fitted effect of over 55% in size
# Conditions: HEK293T ELG1-luciferase reporter, luminescence, 16 h, DNA damage induced by 5-fluorouridine; activity change, negative = inhibition: at 46.1 µM (top of the series)
# Summary of the method: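 Step one: seed 2,000 cells per well. Step two: pin-transfer compound or DMSO alongside 5-fluorouridine. Step three: incubate 16 hr, 37 °C, 5% CO2. Step four: add ONE-Glo, wait 30 min, read luminescence.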
# % is scaled to controls: 0 for no effect and ±100 for the full control effect; potency is read from the fitted curve at half-maximal effect.
SMILES,"activity change, negative = inhibition",Potency
CC(NC(=O)C1CCCN1S(=O)(=O)c1ccccc1)c1ccccc1 (stereo not drawn),inactive: -0.826%,
CCOC(=O)c1cn(CC)c2cc(N3CCN(C)CC3)c(F)cc2c1=O,inactive: 4.3%,
CCOC(=O)C1(Cc2ccccc2C(F)(F)F)CCN(C(=O)c2cc(C(C)=O)n[nH]2)CC1,inactive: -5.3%,
O=C(O)CCC(=O)c1ccc2c(c1)OCCCO2,inactive: 9.9%,
CC(C)(C)CNC(=O)c1cccc2c1C(=O)c1ccc(-c3cc4ccccc4o3)cc1S2(=O)=O,,"inconclusive: 6.51 µM [inhibitor, single point]"
O=C(COC(=O)c1cnccn1)NC1CCCc2ccccc21 (stereo not drawn),,"inconclusive: 10.3 µM [activator, partial curve, poor fit]"
CCOCCCNC(=O)C(NC(=O)Cc1c[nH]c2ccccc12)c1ccccc1 (stereo not drawn),inactive: 3.81%,
C=CC[C@@H](Cc1ccc(F)cc1)C(=O)OC[C@H]1CCCN1C(=O)[C@H](CC=C)CC(=O)N(CCO)Cc1ccccc1,,"inconclusive: 29.1 µM [inhibitor, single point]"
COc1cc(C2CC(=O)N(CC(=O)NCc3ccco3)c3ccccc3S2)cc(OC)c1OC (stereo not drawn),,"inconclusive: 16.4 µM [inhibitor, single point]"
COc1ccc2nc(SCC(=O)NCC3CCCO3)c(C#N)cc2c1 (stereo not drawn),,"inconclusive: 14.6 µM [activator, partial curve]"
O=C(/C=C/c1cccc([N+](=O)[O-])c1)NCCN1C(=O)S/C(=C\c2cccnc2)C1=O,,"inconclusive: 29.1 µM [inhibitor, single point]"
CC1CN(S(=O)(=O)c2cc(C(=O)N3CCCCC3C)ccc2Cl)CC(C)O1 (stereo not drawn),,"inconclusive: 14.6 µM [inhibitor, partial curve, poor fit]"
O=C(N/N=C1/CCS(=O)(=O)c2ccc(F)cc21)c1ccccn1,,"inconclusive: 16.4 µM [activator, partial curve]"
CN1CCN(NC(=O)c2cn(-c3ccccc3)nc2-c2ccc(OC(F)F)cc2)CC1,inactive: 6.62%,
O=C(Nc1nnc(-c2ccco2)o1)c1ccc(Cl)cc1,,"inconclusive: 29.1 µM [inhibitor, single point]"
O=C(c1cc([N+](=O)[O-])cc([N+](=O)[O-])c1)N(Cc1nnc(-c2ccccc2Cl)o1)C1CC1,,"inconclusive: 20.6 µM [inhibitor, single point]"
O=C(CSc1nc2ccccc2[nH]1)N1c2ccccc2Sc2ccccc21,inactive: 2.78%,
Cc1ccc(SCC(=O)NC2CC3CCC(C2)N3C)cc1 (stereo not drawn),,"inconclusive: 0.073 µM [inhibitor, partial curve, poor fit]"
COc1cc(C2Nc3cccc4cccc(c34)N2)ccc1O,inactive: -8.64%,
COc1ccc(OCC(O)CN2CC(C)OC(C)C2)cc1 (stereo not drawn),inactive: -1.97%,
Cc1csc(NC(=O)c2ccccc2[N+](=O)[O-])n1,inactive: 9.31%,
Cc1cc(S(=O)(=O)N2CCCC(C(=O)Nc3ccc(C(=O)O)cc3)C2)ccc1Cl (stereo not drawn),,"inconclusive: 18.3 µM [inhibitor, single point]"
Cc1nn(Cc2ccc(Cl)cc2)c(C)c1NC(=O)CCCn1nc([N+](=O)[O-])c(Cl)c1C,,"inconclusive: 29.1 µM [inhibitor, single point]"

SMILES,"activity change, negative = inhibition",Potency
Nc1cc(Cl)ccc1N1C(=O)CCC1=O,,"inconclusive: 29.1 µM [activator, single point]"
O=C(O)c1cc(N/N=C/c2ccc3c(c2)OCCO3)ccc1Cl,,"inconclusive: 0.259 µM [activator, partial curve]"
CCOC(=O)c1c(-c2ccccc2)csc1NC(=O)CCN1C(=O)c2ccccc2C1=O,,"inconclusive: 32.6 µM [inhibitor, single point]"
CCn1cc(C(=O)NCc2ccco2)c(=O)c2cc(S(=O)(=O)N3CCCCCC3)ccc21,,active: 4.61 µM
COC1=C/C(=C/c2c(N)n3c(nc2=O)sc2cc(S(C)(=O)=O)ccc23)C=CC1=O,,"inconclusive: 16.4 µM [activator, partial curve]"
CC(=O)c1ccc(NC(=O)COC(=O)CC2CC3CCC2C3)cc1 (stereo not drawn),,"inconclusive: 16.4 µM [activator, partial curve, poor fit]"
CC(C)(C)c1ccc(OCC(=O)NNC(=S)NC(=O)c2ccco2)c(Br)c1,inactive: -10.5%,
CCc1ccc(NC(=O)c2sc3nc(C)nc(N4CCN(c5ccccn5)CC4)c3c2C)cc1,inactive: -2.58%,
O=C(COC(=O)/C=C/c1ccc2c(c1)OCO2)NCc1ccccc1,inactive: -11.2%,
O=C(NCCc1ccccc1)C(=O)Nc1nccs1,,"inconclusive: 7.31 µM [activator, partial curve]"
Cc1c(Cc2ccccc2)sc(/N=C/c2c(O)ccc3ccccc23)c1C(N)=O,,"inconclusive: 25.9 µM [inhibitor, partial curve, poor fit]"
C/C(=N\Nc1ccc(C(F)(F)F)cn1)c1ccncc1,,"inconclusive: 20.6 µM [activator, single point]"
Brc1ccc(-c2cn3c(n2)SCC3)cc1,,"inconclusive: 8.2 µM [activator, partial curve]"
O=C(O)CCn1c(SCCOc2ccccc2)nc2ccccc21,,"inconclusive: 0.224 µM [activator, full curve, poor fit]"
COc1ccccc1N(CC(O)COc1c(C)cc(C)cc1C)S(=O)(=O)c1ccccc1 (stereo not drawn),,"inconclusive: 23.1 µM [inhibitor, single point]"
CC(=O)NC(NC(=S)Nc1ccc(N=Nc2ccccc2)cc1)C(Cl)(Cl)Cl (stereo not drawn),inactive: 7.91%,
CS(=O)(=O)N(CC(=O)NCC1CCCO1)c1cc(Cl)ccc1Cl (stereo not drawn),inactive: 1.43%,
COC(=O)c1ccc(CO/N=C/c2ccccc2OC)cc1,inconclusive: 72.6% [activator],
COc1ccc(NC(=O)Nc2ccc(F)cc2F)c(C)c1,,"inconclusive: 16.4 µM [activator, single point]"
Cc1c(NC(=O)/C(=C/c2cccs2)c2cccs2)c(=O)n(-c2ccccc2)n1C,inactive: -2.27%,
Cc1ccc(S(=O)(=O)Cc2cc(-c3ccc(Cl)cc3)no2)cc1,,"inconclusive: 20.6 µM [inhibitor, single point]"
COC(=O)CSc1nc(N)c(C#N)c(-c2ccc(O)cc2)c1C#N,,"inconclusive: 6.51 µM [activator, partial curve, poor fit]"
COCCn1c(=NC(=O)/C=C/c2cccs2)sc2cc(NC(C)=O)ccc21,inactive: -14.8%,

# Reformatted tab-delimited: 2 of the compounds above.
SMILES	activity change, negative = inhibition	Potency
O=C(O)CCn1c(SCCOc2ccccc2)nc2ccccc21		inconclusive: 0.224 µM [activator, full curve, poor fit]
COc1ccccc1N(CC(O)COc1c(C)cc(C)cc1C)S(=O)(=O)c1ccccc1 (stereo not drawn)		inconclusive: 23.1 µM [inhibitor, single point]

# The list continues.

SMILES,"activity change, negative = inhibition",Potency
COc1ccc(NC(=O)/C(C#N)=C/c2ccc(-c3ccc(Cl)c(C(=O)O)c3)o2)cc1,,"inconclusive: 12.6 µM [activator, partial curve]"
COc1ccc(-n2c(-c3ccccc3)nc(=S)c3c2CCCC3)cc1,inactive: 6.67%,
Cc1sc2nc3n(c(=O)c2c1C)Cc1ccccc1-3,,"inconclusive: 2.91 µM [activator, full curve]"
CC(=O)NCCC1CCN(C(=O)c2cc(COc3ccc(C)nc3)on2)CC1,inactive: -18.9%,
C=CCOC(=O)C1=C[C@H](c2ccc(Br)cc2)[C@@H](CCCO)[C@H](OCC)O1,,"inconclusive: 18.3 µM [inhibitor, single point]"
COc1ccc2c(c1)[nH]c1c(=O)n(Cc3ccncc3)cnc12,,"inconclusive: 18.3 µM [activator, partial curve]"
CCCN(C(=O)COC(=O)c1[nH]c(C)c(C(=O)OC)c1C)c1c(N)n(Cc2ccccc2)c(=O)[nH]c1=O,,"inconclusive: 16.4 µM [inhibitor, single point]"
N[C@@H](Cc1cc(I)c(O)c(I)c1)C(=O)O,inactive: 14.1%,
C/C(=N\NC(=O)CC#N)c1ccc(Oc2ccccc2)cc1,,"inconclusive: 14.6 µM [inhibitor, single point]"
C/C(=N\Nc1nc2ccccc2[nH]1)c1ccc(Cl)s1,,"inconclusive: 29.1 µM [inhibitor, single point]"
CCn1cc(C(=O)NCc2ccc3c(c2)OCO3)c(=O)c2cc(S(=O)(=O)N(C)C)ccc21,,active: 16.4 µM
Cc1ccccc1CNC(=O)C1CCCN(c2nnc(C)c3c(C)n(-c4ccccc4)nc23)C1 (stereo not drawn),,"inconclusive: 29.1 µM [inhibitor, single point]"
OCCCN=c1cc(-c2ccccc2)oc2ccc(Cl)cc12,,"inconclusive: 20.6 µM [activator, partial curve]"
COc1cc(NS(=O)(=O)c2ccc(N/C=C(\C#N)c3nc4cc(Cl)ccc4o3)cc2)nc(OC)n1,,"inconclusive: 10.3 µM [inhibitor, partial curve, poor fit]"
O=C(Nc1nc2ccccc2[nH]1)c1ccccc1OC(F)F,,"inconclusive: 1.64 µM [activator, partial curve]"
O=C(NCCCCCCOC1=NS(=O)(=O)c2ccccc21)C(=O)Nc1ccccc1,,"inconclusive: 3.26 µM [activator, full curve]"
CC(CCc1ccccc1)NC(=O)CCCCCNc1nc(=S)[nH]c2ccccc12 (stereo not drawn),,"inconclusive: 25.9 µM [inhibitor, single point]"
CC1CCc2nn(CC(=O)Nc3ccc(F)cc3F)cc2C1 (stereo not drawn),,"inconclusive: 29.1 µM [activator, single point]"
COc1cccc(/C=C/C(=O)Nc2ccccc2N2CCOCC2)c1,inconclusive: 5.88% [activator],
O=C(COC(=O)CCC(=O)c1ccc(F)cc1)Nc1ccc(Cl)cn1,,"inconclusive: 32.6 µM [activator, partial curve, poor fit]"
CCN(CC)S(=O)(=O)c1ccc(Cl)c(C(=O)N2CCc3ccccc32)c1,,"inconclusive: 13 µM [inhibitor, partial curve]"
CCCCn1c(SCC(=O)Nc2oc(C)c3c(C)n[nH]c(=O)c23)nc2cc(S(N)(=O)=O)ccc21,inactive: -15.1%,
